Patent publication US10968190B2, “Processes for preparing oxathiazin-like compounds” (GEISTLICH PHARMA AG, priority 2014, dated 2021)
Some of these results come from one statement about several compounds together.

Test system: cancer stem cells (CSC) derived from four glioblastoma patients
Experiment: Cytotoxicity in cancer stem cells from glioblastoma patients
Type: cell-based
Settings: human CSCs vs bulk cells
Procedure: Tissue samples from high grade gliomas WHO grade IV from newly diagnosed patients (medium age of 54±10 years) were minced mechanically, digested enzymatically and the dissociated cells were filtered. The isolated tumor cells were cultured as bulk cells. Cancer Stem Cells (CSCs) were isolated by the formation of neurospheres under neurosphere conditions (using neurobasal medium) from the murine SMA 560 glioma cell line or from freshly isolated human glioblastoma cells.
The number of remaining adherent cells were stained (crystal violet or Alamar Blue) and quantified by absorbance measurements (540 nm). Cell survival was expressed as the percentage of cells surviving relative to the number of cells surviving in untreated control cultures. The results are given as % killing rate or EC50 as the dose required for half-maximal cytotoxicity. Results
CSCs were isolated from glioblastoma tissue resected from four patients. […].

O=S1(=O)CCN(CN2CCS(=O)(=O)NC2)CN1 [taurolidine]
sensitivity of human CSCs versus human glioblastoma bulk cells: 3 to 4 fold
